In article PMC2757719:
No constants are given. Whether binding was seen depends on the method and setting.

Amino acid sequences for entries named in this document (tags omitted).
UniProt Q93009: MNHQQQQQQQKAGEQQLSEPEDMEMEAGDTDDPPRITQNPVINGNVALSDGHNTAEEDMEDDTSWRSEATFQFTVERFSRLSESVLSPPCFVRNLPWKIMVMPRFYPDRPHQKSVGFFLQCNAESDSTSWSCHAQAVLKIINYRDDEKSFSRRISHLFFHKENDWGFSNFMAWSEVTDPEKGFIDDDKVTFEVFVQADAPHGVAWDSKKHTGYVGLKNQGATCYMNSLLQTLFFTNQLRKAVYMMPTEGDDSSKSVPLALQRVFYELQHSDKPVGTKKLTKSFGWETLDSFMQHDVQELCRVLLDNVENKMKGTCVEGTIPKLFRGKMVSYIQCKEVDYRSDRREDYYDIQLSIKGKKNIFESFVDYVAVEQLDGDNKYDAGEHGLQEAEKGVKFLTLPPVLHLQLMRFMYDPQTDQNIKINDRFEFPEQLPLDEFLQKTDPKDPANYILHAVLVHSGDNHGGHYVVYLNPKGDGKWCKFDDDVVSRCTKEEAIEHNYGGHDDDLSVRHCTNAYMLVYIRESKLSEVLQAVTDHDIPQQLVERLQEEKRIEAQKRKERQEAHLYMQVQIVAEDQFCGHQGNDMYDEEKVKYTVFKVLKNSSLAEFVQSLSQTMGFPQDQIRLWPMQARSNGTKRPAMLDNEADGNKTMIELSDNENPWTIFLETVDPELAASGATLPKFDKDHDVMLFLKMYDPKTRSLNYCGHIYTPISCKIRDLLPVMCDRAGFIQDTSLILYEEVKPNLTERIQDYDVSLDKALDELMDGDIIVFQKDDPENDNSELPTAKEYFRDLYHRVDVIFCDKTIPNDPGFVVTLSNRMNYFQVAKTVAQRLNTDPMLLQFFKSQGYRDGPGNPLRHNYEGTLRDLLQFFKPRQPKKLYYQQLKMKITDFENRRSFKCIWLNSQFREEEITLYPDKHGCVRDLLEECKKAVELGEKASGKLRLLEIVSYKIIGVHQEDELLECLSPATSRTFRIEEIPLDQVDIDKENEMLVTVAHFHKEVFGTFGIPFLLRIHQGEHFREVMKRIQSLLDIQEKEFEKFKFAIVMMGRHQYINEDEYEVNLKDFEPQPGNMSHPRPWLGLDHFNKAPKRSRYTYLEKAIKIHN

Molecular target: EBNA1 truncation mutant 452–641 (Epstein-Barr virus) (UniProt P03211)
Assay: native gel or EMSA; EBNA1 fragment titrated, preincubated with 10 pmols USP7 or USP7-NTD 10 min at RT before 10 fmoles 32P-labelled DS site 1 DNA (or EBNA1-DNA preformed, then rising USP7, Figure 2C); 20 mM Tris pH 7.5, 200 mM NaCl, 1 µg salmon sperm DNA, 20 µl; 10% polyacrylamide gel; read-out: supershift of the EBNA1-DNA complex; both purified

Substance: USP7 (ubiquitin specific protease USP7), full length (from UniProt Q93009 1-1102) (enzyme)
- binding: no binding (tested: 10 pmols of USP7)
